Some of the results follow.

Amino acid sequences for entries named in this document (tags omitted). A change or cut given only in a name is not applied to a line headed by its entry.
UniProt P49736, whole entry, looked up: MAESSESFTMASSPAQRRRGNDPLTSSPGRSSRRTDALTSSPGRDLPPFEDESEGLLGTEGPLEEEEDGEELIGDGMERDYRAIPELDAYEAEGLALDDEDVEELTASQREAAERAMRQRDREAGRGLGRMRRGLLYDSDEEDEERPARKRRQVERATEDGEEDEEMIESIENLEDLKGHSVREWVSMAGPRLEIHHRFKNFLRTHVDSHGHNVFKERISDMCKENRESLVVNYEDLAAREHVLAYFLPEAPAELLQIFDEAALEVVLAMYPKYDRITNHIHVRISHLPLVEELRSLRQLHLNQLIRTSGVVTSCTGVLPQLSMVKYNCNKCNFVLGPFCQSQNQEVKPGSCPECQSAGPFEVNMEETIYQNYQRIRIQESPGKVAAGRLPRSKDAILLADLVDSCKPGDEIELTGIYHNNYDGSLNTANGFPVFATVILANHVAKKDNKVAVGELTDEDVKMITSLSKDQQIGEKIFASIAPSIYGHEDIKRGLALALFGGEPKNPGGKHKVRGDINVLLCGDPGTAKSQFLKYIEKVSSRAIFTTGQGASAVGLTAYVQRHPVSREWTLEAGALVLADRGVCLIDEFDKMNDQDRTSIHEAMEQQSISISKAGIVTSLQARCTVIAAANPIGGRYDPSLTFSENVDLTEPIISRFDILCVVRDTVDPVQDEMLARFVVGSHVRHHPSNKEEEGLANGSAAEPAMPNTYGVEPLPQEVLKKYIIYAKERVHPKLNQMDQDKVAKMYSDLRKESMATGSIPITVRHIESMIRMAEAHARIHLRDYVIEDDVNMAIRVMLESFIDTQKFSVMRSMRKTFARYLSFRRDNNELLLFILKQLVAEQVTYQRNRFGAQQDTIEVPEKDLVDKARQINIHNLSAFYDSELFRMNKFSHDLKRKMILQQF
UniProt Q14696: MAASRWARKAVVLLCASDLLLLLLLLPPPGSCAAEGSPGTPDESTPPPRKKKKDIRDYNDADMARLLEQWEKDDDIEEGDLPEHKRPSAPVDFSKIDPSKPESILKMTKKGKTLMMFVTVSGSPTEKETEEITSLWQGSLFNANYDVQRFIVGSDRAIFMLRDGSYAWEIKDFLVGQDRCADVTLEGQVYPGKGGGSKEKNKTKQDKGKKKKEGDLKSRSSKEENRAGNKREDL
UniProt Q9H8H3: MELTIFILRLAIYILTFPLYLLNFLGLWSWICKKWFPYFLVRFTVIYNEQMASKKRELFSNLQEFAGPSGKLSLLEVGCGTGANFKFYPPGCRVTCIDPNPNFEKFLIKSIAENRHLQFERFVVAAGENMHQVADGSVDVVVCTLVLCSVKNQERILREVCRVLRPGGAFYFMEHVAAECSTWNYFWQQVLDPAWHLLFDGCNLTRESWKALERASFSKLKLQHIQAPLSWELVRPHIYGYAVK
UniProt P33992: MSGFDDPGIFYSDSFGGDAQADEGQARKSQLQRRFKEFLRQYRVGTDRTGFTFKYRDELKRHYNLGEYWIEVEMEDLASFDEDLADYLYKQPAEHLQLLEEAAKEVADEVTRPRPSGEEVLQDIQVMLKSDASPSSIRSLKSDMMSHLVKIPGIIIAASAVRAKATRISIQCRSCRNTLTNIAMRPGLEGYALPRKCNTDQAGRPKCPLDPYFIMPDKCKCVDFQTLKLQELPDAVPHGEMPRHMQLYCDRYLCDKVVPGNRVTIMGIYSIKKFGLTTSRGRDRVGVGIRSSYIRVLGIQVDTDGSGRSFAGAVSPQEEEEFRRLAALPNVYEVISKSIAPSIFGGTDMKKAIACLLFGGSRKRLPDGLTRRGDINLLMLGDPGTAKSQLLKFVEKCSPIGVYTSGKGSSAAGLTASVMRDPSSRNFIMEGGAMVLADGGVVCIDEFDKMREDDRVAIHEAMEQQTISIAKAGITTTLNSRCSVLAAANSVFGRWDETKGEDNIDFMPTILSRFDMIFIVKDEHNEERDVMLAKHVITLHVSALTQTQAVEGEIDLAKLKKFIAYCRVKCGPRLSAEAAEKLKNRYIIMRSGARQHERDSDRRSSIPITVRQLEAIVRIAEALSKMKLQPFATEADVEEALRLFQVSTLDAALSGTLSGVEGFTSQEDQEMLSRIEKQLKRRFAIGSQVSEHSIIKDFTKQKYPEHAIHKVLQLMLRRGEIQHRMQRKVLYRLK
UniProt Q9NRN9: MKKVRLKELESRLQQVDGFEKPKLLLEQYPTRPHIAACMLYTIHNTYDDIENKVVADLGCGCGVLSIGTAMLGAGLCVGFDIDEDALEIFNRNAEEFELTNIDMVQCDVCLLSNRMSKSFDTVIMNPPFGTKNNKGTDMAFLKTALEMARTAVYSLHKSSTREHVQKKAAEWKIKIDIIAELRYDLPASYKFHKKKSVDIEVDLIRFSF
UniProt Q9BV79: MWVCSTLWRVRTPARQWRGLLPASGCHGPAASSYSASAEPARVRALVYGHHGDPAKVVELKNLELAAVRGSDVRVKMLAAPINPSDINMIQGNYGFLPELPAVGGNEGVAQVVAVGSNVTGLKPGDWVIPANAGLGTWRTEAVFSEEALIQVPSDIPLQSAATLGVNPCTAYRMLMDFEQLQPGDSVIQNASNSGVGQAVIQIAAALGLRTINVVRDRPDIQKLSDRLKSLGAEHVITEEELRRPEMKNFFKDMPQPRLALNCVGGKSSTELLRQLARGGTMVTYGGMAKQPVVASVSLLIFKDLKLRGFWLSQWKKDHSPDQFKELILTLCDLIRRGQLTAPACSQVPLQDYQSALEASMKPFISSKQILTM
UniProt Q6ZNC8: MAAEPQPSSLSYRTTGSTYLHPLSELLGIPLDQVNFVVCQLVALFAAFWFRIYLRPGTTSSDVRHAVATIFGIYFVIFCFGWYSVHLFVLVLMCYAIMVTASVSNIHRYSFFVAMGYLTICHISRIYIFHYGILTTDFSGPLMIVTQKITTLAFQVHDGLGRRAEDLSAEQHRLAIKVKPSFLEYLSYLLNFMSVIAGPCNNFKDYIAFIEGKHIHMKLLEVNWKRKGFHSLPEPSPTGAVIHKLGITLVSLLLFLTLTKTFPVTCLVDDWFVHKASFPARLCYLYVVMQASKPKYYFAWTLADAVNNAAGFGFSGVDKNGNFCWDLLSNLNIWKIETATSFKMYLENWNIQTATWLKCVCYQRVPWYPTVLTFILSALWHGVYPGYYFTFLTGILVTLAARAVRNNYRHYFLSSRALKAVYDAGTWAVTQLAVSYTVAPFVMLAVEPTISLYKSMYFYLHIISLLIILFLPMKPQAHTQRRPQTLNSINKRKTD
UniProt Q06413, whole entry, looked up: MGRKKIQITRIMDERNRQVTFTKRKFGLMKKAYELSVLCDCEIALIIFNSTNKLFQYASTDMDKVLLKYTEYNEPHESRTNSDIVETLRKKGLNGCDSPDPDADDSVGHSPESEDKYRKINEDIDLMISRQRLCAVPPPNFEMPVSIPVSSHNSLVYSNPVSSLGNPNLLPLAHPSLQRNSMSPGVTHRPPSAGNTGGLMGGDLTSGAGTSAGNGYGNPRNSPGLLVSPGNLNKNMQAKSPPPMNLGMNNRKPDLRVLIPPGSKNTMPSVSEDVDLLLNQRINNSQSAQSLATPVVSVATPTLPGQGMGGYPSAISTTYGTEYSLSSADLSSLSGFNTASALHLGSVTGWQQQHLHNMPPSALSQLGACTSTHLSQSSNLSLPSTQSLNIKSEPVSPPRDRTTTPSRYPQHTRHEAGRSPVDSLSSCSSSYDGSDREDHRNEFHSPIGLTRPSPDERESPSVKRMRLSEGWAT
UniProt Q9NZL9, whole entry, looked up: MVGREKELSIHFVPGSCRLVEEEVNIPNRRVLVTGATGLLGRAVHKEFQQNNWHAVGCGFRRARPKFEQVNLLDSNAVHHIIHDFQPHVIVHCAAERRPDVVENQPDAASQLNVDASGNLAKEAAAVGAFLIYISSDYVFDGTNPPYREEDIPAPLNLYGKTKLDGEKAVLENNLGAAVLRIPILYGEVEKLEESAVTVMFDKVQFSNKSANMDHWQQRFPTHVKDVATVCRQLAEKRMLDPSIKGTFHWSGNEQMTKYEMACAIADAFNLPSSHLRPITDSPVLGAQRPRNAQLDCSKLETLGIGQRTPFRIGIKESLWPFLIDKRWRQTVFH
UniProt Q8WXB1: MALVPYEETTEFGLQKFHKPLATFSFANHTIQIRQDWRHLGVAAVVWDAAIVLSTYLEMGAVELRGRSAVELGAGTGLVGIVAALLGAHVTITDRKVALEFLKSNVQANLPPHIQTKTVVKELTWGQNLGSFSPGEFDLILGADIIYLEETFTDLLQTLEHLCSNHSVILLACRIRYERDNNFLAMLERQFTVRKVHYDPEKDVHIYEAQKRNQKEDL
UniProt P25205: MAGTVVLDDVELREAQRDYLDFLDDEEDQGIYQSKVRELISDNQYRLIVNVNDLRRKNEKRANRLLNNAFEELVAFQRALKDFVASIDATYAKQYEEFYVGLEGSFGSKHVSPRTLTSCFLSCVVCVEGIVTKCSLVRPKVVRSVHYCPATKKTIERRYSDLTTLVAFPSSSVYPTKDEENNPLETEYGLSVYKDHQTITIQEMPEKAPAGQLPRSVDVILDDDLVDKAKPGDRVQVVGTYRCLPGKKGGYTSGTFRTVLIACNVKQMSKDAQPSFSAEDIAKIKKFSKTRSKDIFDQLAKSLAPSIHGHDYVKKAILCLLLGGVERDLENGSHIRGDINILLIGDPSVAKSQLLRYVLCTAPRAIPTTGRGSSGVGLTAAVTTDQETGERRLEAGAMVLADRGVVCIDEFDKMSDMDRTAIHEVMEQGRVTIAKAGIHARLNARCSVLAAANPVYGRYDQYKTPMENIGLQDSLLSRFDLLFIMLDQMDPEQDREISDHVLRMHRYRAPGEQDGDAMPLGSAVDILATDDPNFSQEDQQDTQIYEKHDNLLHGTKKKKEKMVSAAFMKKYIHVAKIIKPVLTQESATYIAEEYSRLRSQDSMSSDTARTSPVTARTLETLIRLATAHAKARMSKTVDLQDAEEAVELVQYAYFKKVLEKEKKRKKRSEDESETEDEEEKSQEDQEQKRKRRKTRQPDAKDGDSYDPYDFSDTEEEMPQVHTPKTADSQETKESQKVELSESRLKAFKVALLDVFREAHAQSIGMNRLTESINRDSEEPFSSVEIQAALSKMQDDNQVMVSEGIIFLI
UniProt Q96HR3: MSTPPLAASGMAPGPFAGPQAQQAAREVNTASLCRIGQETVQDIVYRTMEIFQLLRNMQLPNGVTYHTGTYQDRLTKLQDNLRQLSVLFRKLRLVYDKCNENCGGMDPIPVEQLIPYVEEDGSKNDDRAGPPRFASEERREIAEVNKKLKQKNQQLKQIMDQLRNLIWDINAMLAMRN
UniProt Q9BUE0: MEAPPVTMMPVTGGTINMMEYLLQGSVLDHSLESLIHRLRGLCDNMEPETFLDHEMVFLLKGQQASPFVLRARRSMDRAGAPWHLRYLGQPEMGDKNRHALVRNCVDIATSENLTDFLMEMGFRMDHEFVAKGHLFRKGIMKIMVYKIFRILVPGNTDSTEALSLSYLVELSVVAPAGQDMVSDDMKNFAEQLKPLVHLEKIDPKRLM
UniProt Q96RQ3: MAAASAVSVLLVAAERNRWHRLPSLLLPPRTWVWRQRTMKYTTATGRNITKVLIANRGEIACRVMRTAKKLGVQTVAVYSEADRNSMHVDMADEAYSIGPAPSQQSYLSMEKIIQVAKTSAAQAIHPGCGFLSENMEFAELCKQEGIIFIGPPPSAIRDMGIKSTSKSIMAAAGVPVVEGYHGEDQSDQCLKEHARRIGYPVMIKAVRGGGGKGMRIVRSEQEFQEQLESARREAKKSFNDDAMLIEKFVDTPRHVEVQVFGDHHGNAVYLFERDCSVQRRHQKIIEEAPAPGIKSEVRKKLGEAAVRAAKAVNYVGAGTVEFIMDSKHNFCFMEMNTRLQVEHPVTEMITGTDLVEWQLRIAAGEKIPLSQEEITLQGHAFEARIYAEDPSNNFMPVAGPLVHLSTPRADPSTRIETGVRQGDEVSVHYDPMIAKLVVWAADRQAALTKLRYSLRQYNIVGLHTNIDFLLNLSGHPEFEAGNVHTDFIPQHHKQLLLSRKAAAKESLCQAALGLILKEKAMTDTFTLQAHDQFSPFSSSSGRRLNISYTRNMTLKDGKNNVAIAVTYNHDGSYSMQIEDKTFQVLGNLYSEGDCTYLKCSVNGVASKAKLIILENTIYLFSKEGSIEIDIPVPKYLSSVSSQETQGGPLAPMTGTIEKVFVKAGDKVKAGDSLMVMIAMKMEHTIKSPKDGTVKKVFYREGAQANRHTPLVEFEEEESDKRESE
UniProt Q14728: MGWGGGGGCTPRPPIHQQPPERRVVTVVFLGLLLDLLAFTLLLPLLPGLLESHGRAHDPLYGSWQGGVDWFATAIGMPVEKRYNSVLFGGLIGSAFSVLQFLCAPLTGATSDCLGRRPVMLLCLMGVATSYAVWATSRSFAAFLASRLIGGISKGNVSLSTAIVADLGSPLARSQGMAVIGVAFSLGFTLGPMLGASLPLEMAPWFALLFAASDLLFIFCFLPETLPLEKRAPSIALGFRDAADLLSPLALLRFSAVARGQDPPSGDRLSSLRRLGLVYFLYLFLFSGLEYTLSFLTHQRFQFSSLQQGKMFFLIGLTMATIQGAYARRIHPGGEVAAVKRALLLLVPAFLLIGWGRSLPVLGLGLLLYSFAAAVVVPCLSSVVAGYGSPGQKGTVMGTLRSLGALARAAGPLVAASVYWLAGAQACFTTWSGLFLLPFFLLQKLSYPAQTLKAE

We go through 23 targets from the supplement of paper PMC10849652.

Compound in this test: Cc1ncc(-c2ccnc(Nc3ccc(S(C)(=O)=O)cc3)n2)n1C(C)C
Description: log2 fold change, soluble protein after heating vs DMSO (PISA); higher = thermal stabilisation; K562 cells, 10 uM, 30 min; active = over 0.2 and 3.5 SD of the protein, either way, in both replicates (recomputed). An outline of the steps: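 For each measurement, 10 μM compound was applied for 30 min to K562 cells at 2×10^6 cells/mL. Aliquots were heated for 3 min across 48°C-58°C, pooled, and extracted in PBS with 0.5% NP-40 at 4°C; the supernatant after 21,000xg for 90 min was soluble protein. This was quantified by TMTpro 16plex LC-MS/MS with channel sums equalised, and thermal stability was reported relative to control samples from duplicates, on a log2 fold-change scale.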
As to MCM2 (UniProt P49736), the log2 fold change was inactive: -0.041.

Turning to MESD (UniProt Q14696), the log2 fold change was inactive: -0.032.

On to MCRIP1 (UniProt I3L4Q0), for which the log2 fold change was inactive: -0.029.

Consider MDN1 (UniProt Q9NU22), for which the log2 fold change was inactive: -0.089.

For the target MED23 (UniProt Q9ULK4), the log2 fold change was inactive: -0.184.

As for METTL7A (UniProt Q9H8H3), the log2 fold change is inactive: 0.011.

For MCM5 (UniProt P33992), the log2 fold change is inactive: -0.012.

For the target METTL5 (UniProt Q9NRN9), the log2 fold change was inactive: -0.005.

On to MECR (UniProt Q9BV79), for which the log2 fold change is inactive: -0.03.

MBOAT1 (UniProt Q6ZNC8): the log2 fold change is inactive: -0.165.

With MEF2C isoform 5 (UniProt Q06413), the log2 fold change is inactive: 0.013.

Regarding MAT2B (UniProt Q9NZL9), the log2 fold change is inactive: -0.006.

With METTL21A (UniProt Q8WXB1), the log2 fold change is inactive: -0.032.

As to MERTK (UniProt Q12866), the log2 fold change is inactive: -0.054.

MCM3 isoform 2 (UniProt P25205): the log2 fold change is inactive: -0.036.

For the target MCCC2 (UniProt Q9HCC0), the log2 fold change was inactive: -0.047.

Turning to MED30 (UniProt Q96HR3), the log2 fold change is inactive: -0.095.

Take MED18 (UniProt Q9BUE0): the log2 fold change is inactive: -0.048.

Turning to MFAP1 (UniProt P55081), the log2 fold change is inactive: -0.014.

As to MCCC1 (UniProt Q96RQ3), the log2 fold change was inactive: 0.014.

As for MGAT4B isoform 3 (UniProt Q9UQ53), the log2 fold change was inactive: -0.097.

Regarding MED14 (UniProt O60244), the log2 fold change is inactive: -0.134.

In the case of MFSD10 (UniProt Q14728), the log2 fold change is inactive: -0.002.
